Source: article PMC10604565 (Antibiotics, 2023)

Assay: general procedure: Fmoc solid-phase peptide synthesis; Fmoc-Wang resin, preloaded, 0.4–0.8 mmol/g; Oxyma pure/DIC (double coupling, 8 eq.); HATU/DIPEA for Fmoc-Asp(OtBu)-(Dmb)Gly-
Details: whole synthesis, analytical LC-MS

HTSRLKARKHSKRRVRDKDGDLKTQIEKLWTEVNALKEIQALQTVCL
final LC-MS purity: 91%

Where a sequence shows no end group, the ends are not given.
